These are yes or no findings as the source states them, for the method shown. In cells and extracts the contact can be indirect. Binding can be weak; no strength is given.
Target: Large tumor suppressor kinase 1 (human (endogenous in MDA-MB-231 and MDA-MB-453)) (UniProt O95835)
Test: co-IP; lysates of MDA-MB-231 and MDA-MB-453 cells, precleared with protein A/G magnetic beads; immunoprecipitation with anti-LATS1 antibody at 4°C overnight, protein A/G magnetic beads, Western blot for TRIM65

The chains behind the UniProt entries cited, without tags or fusion partners. Where a name states a change or a piece, a line headed by the entry shows the natural chain unless it says otherwise.
UniProt O95835: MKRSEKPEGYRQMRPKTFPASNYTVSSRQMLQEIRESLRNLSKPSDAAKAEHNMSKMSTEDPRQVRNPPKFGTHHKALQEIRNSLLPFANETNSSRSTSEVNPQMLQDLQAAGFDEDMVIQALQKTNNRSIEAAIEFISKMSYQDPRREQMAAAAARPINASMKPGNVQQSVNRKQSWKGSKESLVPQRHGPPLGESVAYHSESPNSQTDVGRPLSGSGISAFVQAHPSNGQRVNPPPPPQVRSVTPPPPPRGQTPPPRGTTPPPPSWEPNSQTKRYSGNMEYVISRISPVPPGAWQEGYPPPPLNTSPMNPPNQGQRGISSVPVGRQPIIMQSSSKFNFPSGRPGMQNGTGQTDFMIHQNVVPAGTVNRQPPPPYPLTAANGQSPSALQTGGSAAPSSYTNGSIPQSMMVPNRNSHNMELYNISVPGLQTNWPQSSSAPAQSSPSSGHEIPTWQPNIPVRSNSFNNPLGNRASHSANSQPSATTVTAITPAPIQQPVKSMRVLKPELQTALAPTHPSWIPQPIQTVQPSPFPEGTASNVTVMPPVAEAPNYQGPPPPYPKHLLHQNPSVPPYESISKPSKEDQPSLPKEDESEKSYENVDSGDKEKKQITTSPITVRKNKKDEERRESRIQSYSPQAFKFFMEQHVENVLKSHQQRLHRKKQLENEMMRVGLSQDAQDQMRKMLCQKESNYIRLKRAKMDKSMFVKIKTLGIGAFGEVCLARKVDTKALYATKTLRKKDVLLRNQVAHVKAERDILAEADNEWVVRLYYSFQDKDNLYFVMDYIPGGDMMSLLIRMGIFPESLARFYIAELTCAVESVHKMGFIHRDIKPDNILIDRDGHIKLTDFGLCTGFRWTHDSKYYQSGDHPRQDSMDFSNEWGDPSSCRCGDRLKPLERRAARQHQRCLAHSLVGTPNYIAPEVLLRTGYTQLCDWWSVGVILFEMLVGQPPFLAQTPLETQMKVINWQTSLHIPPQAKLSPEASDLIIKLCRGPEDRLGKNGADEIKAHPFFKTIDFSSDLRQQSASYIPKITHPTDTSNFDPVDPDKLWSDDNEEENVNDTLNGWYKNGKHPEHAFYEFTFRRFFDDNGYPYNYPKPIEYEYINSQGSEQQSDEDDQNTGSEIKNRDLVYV

B1: Tripartite motif containing 65 (protein, UniProt Q6PJ69 1-517)
chain: MAAQLLEEKLTCAICLGLYQDPVTLPCGHNFCGACIRDWWDRCGKACPECREPFPDGAELRRNVALSGVLEVVRAGPARDPGPDPGPGPDPAARCPRHGRPLELFCRTEGRCVCSVCTVRECRLHERALLDAERLKREAQLRASLEVTQQQATQAEGQLLELRKQSSQIQNSACILASWVSGKFSSLLQALEIQHTTALRSIEVAKTQALAQARDEEQRLRVHLEAVARHGCRIRELLEQVDEQTFLQESQLLQPPGPLGPLTPLQWDEDQQLGDLKQLLSRLCGLLLEEGSHPGAPAKPVDLAPVEAPGPLAPVPSTVCPLRRKLWQNYRNLTFDPVSANRHFYLSRQDQQVKHCRQSRGPGGPGSFELWQVQCAQSFQAGHHYWEVRASDHSVTLGVSYPQLPRCRLGPHTDNIGRGPCSWGLCVQEDSLQAWHNGEAQRLPGVSGRLLGMDLDLASGCLTFYSLEPQTQPLYTFHALFNQPLTPVFWLLEGRTLTLCHQPGAVFPLGPQEEVLS
binding: binds

— PMC9402307
